From US20260125351A1, “COMPOUND FOR INDUCING EXPRESSION OF ANTI-AGING GENE KLOTHO AND USE THEREOF” (KLOTHO SCIENCES, priority 2019, published 2026)
Some of these results come from one statement about several compounds together.

These molecules were tested on klotho (KL) gene (assay: Quantitative evaluation of klotho (KL) gene expression level using general PCR in RPTEC cells). Settings: 2.5 M for 6 hours, band quantitation (FIG. 5).
Assay type: cell-based, human
Description: After RPTEC cells, which are epithelial cells of the proximal tubule of the human kidneys, were each treated with the compounds of Examples 7 to 10 at […] for 6 hours. RNA was extracted from the cells, and cDNA was prepared from the extracted RNA using a Superscript II kit from Thermo Fisher Scientific, Inc., and then general PCR was performed.
Information on the primers used in the experiment is as follows.
The DNA amplified by PCR was confirmed by staining with ethidium bromide after electrophoresis on an agarose gel, and the amounts of DNA in the band were quantitatively compared using the SPEedyQuant program, and are illustrated in FIG. 5.
With `Clc1ccc(Nc2nc3cc4ccccc4cc3o2)cc1Cl` [Example 8, N-(3,4-dichlorophenyl)naphtho[2,3-d]oxazol-2-amine] the “expression level of the klotho (KL) gene” value was “much higher than that in Comparative Example 1”. With `Cc1ccc2oc(Nc3ccc(F)c(F)c3)nc2c1` [Example 9, N-(3,4-difluorophenyl)-5-methylbenzo[d]oxazol-2-amine] the “expression level of the klotho (KL) gene” value was “much higher than that in Comparative Example 1”. For `Fc1ccc(Nc2nc3ccccc3o2)cc1F` [Example 10, N-(3,4-difluorophenyl)benzo[d]oxazol-2-amine], the “expression level of the klotho (KL) gene” value was “much higher than that in Comparative Example 1”.
